Experiment [1] deals with T1, Dph1 protein fused to a myc tag (mouse dph1 in pcDNA3.1(-)/myc-His A, pcDNA-Dph1-myc) (mouse) (UniProt Q5NCQ5).
T1 sequence (looked up): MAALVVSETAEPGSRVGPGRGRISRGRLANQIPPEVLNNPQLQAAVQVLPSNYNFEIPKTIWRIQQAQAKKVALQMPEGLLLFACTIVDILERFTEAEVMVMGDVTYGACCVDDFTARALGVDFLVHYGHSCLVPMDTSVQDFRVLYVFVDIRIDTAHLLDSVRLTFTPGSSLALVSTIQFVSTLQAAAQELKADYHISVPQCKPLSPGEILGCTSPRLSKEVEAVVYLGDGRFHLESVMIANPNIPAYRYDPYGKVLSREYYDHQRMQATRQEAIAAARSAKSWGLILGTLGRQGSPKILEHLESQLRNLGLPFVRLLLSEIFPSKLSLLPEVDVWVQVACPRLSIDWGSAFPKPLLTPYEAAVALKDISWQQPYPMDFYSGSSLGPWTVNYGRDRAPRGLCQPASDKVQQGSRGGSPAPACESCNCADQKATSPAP
Put plainly: co-immunoprecipitation: anti-myc IP, anti-TAP Western blot (FIG. 9, lane 2). A general note: In western blotting, separated proteins are transferred to a membrane and probed.

Experiment [2] concerns the target T1, Dph1 protein fused to a myc tag (mouse dph1 in pcDNA3.1(-)/myc-His A, pcDNA-Dph1-myc) (mouse). Kind of experiment: co-immunoprecipitation: anti-myc IP of lysate of 293T cells with Dph1-myc and Dph2(C)-TAP, anti-TAP Western blot.

Results are given in words; binding and its absence hold for the method and conditions named. Binding seen in cells or lysates may run through a third protein. Some binding calls cover weakened binding; strength is not graded here. Tags and fused reporters may be left off the sequences shown.

B1: TAP-tagged Dph2(C-) (hamster Dph2 C-terminal deletion mutant, pNC-Dph2(C-)-TAP) (protein, not shown: small tags and cut ends)
chain: MESTFSSPAEAALQREAGVPGLFTPPEDLDRVYELERVTKFVCDLGCQRVALQFPDQLLGDAGAVAVRLEEVTGSKMFILGDTAYGSCCVDVLGAEQAGAEALVHFGPACLSPPASLLPITFVLGQRSVALELCAKAFEARNPDPTAPVVLLSEPACAHALEALATLLRPKYQDLLISSPALPLPVGSPSSQPEPLERFGRRFPLSPGRCLEEYGAFYVGGSQASSDPVLDPDLSRLLLGWTPGRPFISCCPDTGQTQDQGVQAGRLRARRLYLIERARDAHVVGLLAGTLGVAQHREALAHLRKLTEAAGKRSYVLALGRPTPAKLANFPEMDIFVLLACPLGALAPQPSGGFFRPILTPCELEAACNPAWPPPGLAPHLTHYAELLPGSPFYVPLP
Turning to B1, the binding entry in experiment [1] and in experiment [2] was “binds” each time.

For the origin of these results see patent US20090274670A1.
